Values from PubChem BioAssay AID504774 (Drosophila RNAi Screening Center, 2011)
In all, the deposit lists about 23,000 reagents; below is a random part of those that have a named target and a result. 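Values are quantile-normalised luminescence on an arbitrary scale; higher means more cells surviving MMS.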 A plus sign joins genes that one reagent is predicted to hit.

Screen: 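Knock-downs that shift viability of MMS-exposed cells relative to untreated ones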 (primary screen)
Cells: Drosophila Kc167 cells
Reagent: long dsRNA against Drosophila genes, about 0.25 µg dsRNA per well
Duration: about 6 days: 3 days knock-down, then 3 days with or without MMS
Conditions: methyl methanesulphonate 0.004% (w/v) for 3 days after knock-down
Measured: 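Viability in wells given MMS, read as ATP luminescence, normalised by quantiles plate by plate and averaged across replicates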
Reading the numbers: mean viability with MMS and viability with MMS: higher = more surviving cells after MMS

mean viability with MMS | viability with MMS, replicate 1 | viability with MMS, replicate 2 | gene knocked down | dsRNA
3.47e6 | 3.91e6 | 3.95e6 | Grip71 | DRSC02042
3.53e6 | 4.07e6 | 3.94e6 | CG17834 | DRSC02637
3.61e6 | 4.07e6 | 4.10e6 | CG15601 | DRSC19670
3.54e6 | 4.01e6 | 4.00e6 | cl (clot) | DRSC02118
3.47e6 | 4.03e6 | 3.85e6 | fs(1)N (female sterile (1) Nasrat) | DRSC18578
3.56e6 | 4.05e6 | 4.05e6 | pad (poils au dos) | DRSC14227
3.52e6 | 3.98e6 | 4.02e6 | CG2794 | DRSC00534
3.40e6 | 3.93e6 | 3.76e6 | CG17283 | DRSC15219
3.58e6 | 4.07e6 | 4.06e6 | CG15358 | DRSC00388
3.48e6 | 4.02e6 | 3.89e6 | G9a | DRSC18619
3.53e6 | 4.00e6 | 4.03e6 | CG32772 | DRSC18052
3.61e6 | 3.99e6 | 4.21e6 | CG32772 | DRSC18406
3.60e6 | 4.01e6 | 4.12e6 | CG32772 | DRSC22349
3.68e6 | 4.14e6 | 4.24e6 | CG4829 | DRSC19920
2.78e6 | 3.63e6 | 3.63e6 | CG11566 (retired record) + stg1 | DRSC20473
3.37e6 | 3.85e6 | 3.78e6 | CG11566 (retired record) + stg1 | DRSC20481
3.52e6 | 3.95e6 | 4.05e6 | CG11566 (retired record) + stg1 | DRSC20482
3.52e6 | 3.96e6 | 4.03e6 | CG11566 (retired record) + stg1 | DRSC20483
3.38e6 | 3.88e6 | 3.71e6 | CG31436 | DRSC14661
3.43e6 | 4.00e6 | 3.68e6 | CG9547 | DRSC03260
3.50e6 | 3.91e6 | 4.06e6 | CG34232 | DRSC05332
3.49e6 | 3.90e6 | 4.02e6 | CG16868 | DRSC06633
3.39e6 | 3.81e6 | 3.83e6 | GlyT (Glycine transporter) | DRSC04512
3.60e6 | 4.06e6 | 4.11e6 | Hn (Henna) | DRSC11184
3.48e6 | 3.90e6 | 3.94e6 | CecA2 (Cecropin A2) | DRSC16604
3.71e6 | 4.23e6 | 4.09e6 | regucalcin | DRSC18908
3.62e6 | 4.20e6 | 3.99e6 | regucalcin | DRSC20366
3.52e6 | 4.00e6 | 3.99e6 | CG14478 | DRSC06450

Part of the list above in another layout.
{"gene knocked down": "CG11566 (retired record) + stg1", "dsRNA": "DRSC20483", "mean viability with MMS": 3.52e6, "viability with MMS, replicate 1": 3.96e6, "viability with MMS, replicate 2": 4.03e6}
{"gene knocked down": "CG31436", "dsRNA": "DRSC14661", "mean viability with MMS": 3.38e6, "viability with MMS, replicate 1": 3.88e6, "viability with MMS, replicate 2": 3.71e6}
{"gene knocked down": "CG9547", "dsRNA": "DRSC03260", "mean viability with MMS": 3.43e6, "viability with MMS, replicate 1": 4.00e6, "viability with MMS, replicate 2": 3.68e6}
{"gene knocked down": "CG34232", "dsRNA": "DRSC05332", "mean viability with MMS": 3.50e6, "viability with MMS, replicate 1": 3.91e6, "viability with MMS, replicate 2": 4.06e6}
